Results deposited as PubChem BioAssay AID1224830 (NIAID, 2016).
The deposit covers about 18,000 reagents; shown is an unselected part. In the full data, about 2,900 (16%) are marked active. 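Calls are made per well; low scores hint the gene aids the LPS response, high scores that it dampens it.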 Entries without a mark were called inactive. Repeated entries: four replicate wells of each siRNA pool.

Purpose: 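Genes whose knock-down alters the TNF-alpha reporter response to LPS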 (primary screen)
Cell system: human THP-1 monocytic leukaemia cells, TNF dual-luciferase reporter clone, PMA-differentiated to macrophage-like cells
Reagents: siRNA pool against human genes, 50 nM
Duration: LPS for 4 h, given about 3 days after siRNA transfection
Challenge: bacterial LPS (TLR4 ligand), 10 ng/ml
Read-out: 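TNF firefly reporter luminescence divided by renilla, normalised to the plate median, then turned into a robust z-score for each replicate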
Direction: TNF reporter robust z-score: higher = stronger TNF reporter response to LPS
Rule for the call: 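a well is active when its z-score exceeds 2.8 or falls below -1.5; control wells carry no call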

no.	target	TNF reporter robust z-score
1	SLC29A4	-0.05
2	SLC29A4	1.15
3	SLC29A4	0.16
4	SLC29A4	-0.41
5	SLC2A1	-1.72 (active)
6	SLC2A1	-1.11
7	SLC2A1	-1.51 (active)
8	ZNF781 (zinc finger protein 781 (pseudogene))	1.27
9	ZNF781 (zinc finger protein 781 (pseudogene))	0.63
10	ZNF781 (zinc finger protein 781 (pseudogene))	0.82
11	ZNF781 (zinc finger protein 781 (pseudogene))	0.75
12	GNAQ (G protein subunit alpha q)	-0.25
13	GNAQ (G protein subunit alpha q)	0.16
14	GNAQ (G protein subunit alpha q)	0.08
15	GNAQ (G protein subunit alpha q)	-0.01
16	FAM9C (family with sequence similarity 9 member C)	-0.68
17	FAM9C (family with sequence similarity 9 member C)	-0.39
18	FAM9C (family with sequence similarity 9 member C)	-0.61
19	FAM9C (family with sequence similarity 9 member C)	-0.29
20	MCPH1 (microcephalin 1)	-0.72
21	MCPH1 (microcephalin 1)	0.06
22	MCPH1 (microcephalin 1)	-0.47
23	MCPH1 (microcephalin 1)	-0.5
24	SLC4A8	0.77
25	SLC4A8	1.93
26	SLC4A8	2.33
27	SLC4A8	1.86
28	FGF11 (fibroblast growth factor 11)	-0.19
29	FGF11 (fibroblast growth factor 11)	-0.42
30	FGF11 (fibroblast growth factor 11)	-0.4
31	FGF11 (fibroblast growth factor 11)	-0.56
32	RBPJ	-1.11
33	RBPJ	-1.12
34	RBPJ	-1.6 (active)
35	RBPJ	-0.91
36	SLC44A1	0.26
37	SLC44A1	-0.62
38	SLC44A1	-1.48
39	SLC44A1	0.84
40	SH3BP5 (SH3 domain binding protein 5)	0.02
41	SH3BP5 (SH3 domain binding protein 5)	-0.18
42	SH3BP5 (SH3 domain binding protein 5)	0.19
43	SH3BP5 (SH3 domain binding protein 5)	0.23
44	ZNF416 (zinc finger protein 416)	0.16
45	ZNF416 (zinc finger protein 416)	0.24
46	ZNF416 (zinc finger protein 416)	0.9
47	ZNF416 (zinc finger protein 416)	1.2
48	MFGE8 (milk fat globule EGF and factor V/VIII domain containing)	-0.29
49	MFGE8 (milk fat globule EGF and factor V/VIII domain containing)	-1.11
50	MFGE8 (milk fat globule EGF and factor V/VIII domain containing)	-1.32
51	MFGE8 (milk fat globule EGF and factor V/VIII domain containing)	-0.11
52	CFAP52 (cilia and flagella associated protein 52)	-0.51
53	CFAP52 (cilia and flagella associated protein 52)	0.32
54	CFAP52 (cilia and flagella associated protein 52)	-0.87
55	CFAP52 (cilia and flagella associated protein 52)	-0.56
56	KRTAP20-1 (keratin associated protein 20-1)	-0.73
57	KRTAP20-1 (keratin associated protein 20-1)	-0.7
58	KRTAP20-1 (keratin associated protein 20-1)	-1.6 (active)
59	KRTAP20-1 (keratin associated protein 20-1)	-0.56
60	H1-10 (H1.10 linker histone)	2.28
61	H1-10 (H1.10 linker histone)	2.44
62	H1-10 (H1.10 linker histone)	-1.63 (active)
63	H1-10 (H1.10 linker histone)	1.38
64	DHRS4L1 (dehydrogenase/reductase 4 like 1 (pseudogene))	0.41
65	DHRS4L1 (dehydrogenase/reductase 4 like 1 (pseudogene))	-0.12
66	DHRS4L1 (dehydrogenase/reductase 4 like 1 (pseudogene))	0.48
67	DHRS4L1 (dehydrogenase/reductase 4 like 1 (pseudogene))	1.8
68	TRIM73 (tripartite motif containing 73)	-0.55
69	TRIM73 (tripartite motif containing 73)	1.29
70	TRIM73 (tripartite motif containing 73)	-0.78
71	TRIM73 (tripartite motif containing 73)	1.58
72	SLC25A48	0.45
73	SLC25A48	0.18
74	SLC25A48	-0.97
75	SLC25A48	0.23
76	MPLKIP (M-phase specific PLK1 interacting protein)	0.59
77	MPLKIP (M-phase specific PLK1 interacting protein)	0.33
78	MPLKIP (M-phase specific PLK1 interacting protein)	0.19
79	MPLKIP (M-phase specific PLK1 interacting protein)	0.48
80	H2BC8 (H2B clustered histone 8)	0
81	H2BC8 (H2B clustered histone 8)	0.82
82	H2BC8 (H2B clustered histone 8)	-1.01
83	H2BC8 (H2B clustered histone 8)	0.55
84	GBP2 (guanylate binding protein 2)	-0.84
85	GBP2 (guanylate binding protein 2)	-1.1
86	GBP2 (guanylate binding protein 2)	-1.42
87	GBP2 (guanylate binding protein 2)	-1.21
88	DCAF12L1 (DDB1 and CUL4 associated factor 12 like 1)	0.98
89	DCAF12L1 (DDB1 and CUL4 associated factor 12 like 1)	2.03
90	DCAF12L1 (DDB1 and CUL4 associated factor 12 like 1)	0.25
91	DCAF12L1 (DDB1 and CUL4 associated factor 12 like 1)	-0.57
92	MTHFD1L	-0.69
93	MTHFD1L	0.23
94	MTHFD1L	-0.33
95	MTHFD1L	-0.28
96	CCN3 (cellular communication network factor 3)	0.21
97	CCN3 (cellular communication network factor 3)	-0.07
98	CCN3 (cellular communication network factor 3)	0.15
99	CCN3 (cellular communication network factor 3)	0.02
100	KLF11 (KLF transcription factor 11)	-1.06
101	KLF11 (KLF transcription factor 11)	0.2
102	KLF11 (KLF transcription factor 11)	-0.67
103	KLF11 (KLF transcription factor 11)	-0.36
104	TRIM40 (tripartite motif containing 40)	3.16 (active)
105	TRIM40 (tripartite motif containing 40)	1.7
106	TRIM40 (tripartite motif containing 40)	0.34
107	TRIM40 (tripartite motif containing 40)	0.14
108	MYL4 (myosin light chain 4)	0.1
109	MYL4 (myosin light chain 4)	-0.86
110	MYL4 (myosin light chain 4)	-0.16
111	MYL4 (myosin light chain 4)	-0.28
